The results in this text go back to paper PMC3990711.

The chains behind the UniProt entries cited, without tags or fusion partners. Residues count along the entry.
UniProt P15187, residues 1-296: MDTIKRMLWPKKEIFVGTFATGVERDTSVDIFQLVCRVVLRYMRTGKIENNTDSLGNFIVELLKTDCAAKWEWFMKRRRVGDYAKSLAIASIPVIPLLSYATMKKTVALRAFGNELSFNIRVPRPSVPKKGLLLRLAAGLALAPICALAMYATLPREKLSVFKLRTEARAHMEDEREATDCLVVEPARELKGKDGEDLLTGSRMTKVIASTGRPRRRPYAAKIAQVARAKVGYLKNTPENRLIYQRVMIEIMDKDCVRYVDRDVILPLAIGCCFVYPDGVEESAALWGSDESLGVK
UniProt P20447: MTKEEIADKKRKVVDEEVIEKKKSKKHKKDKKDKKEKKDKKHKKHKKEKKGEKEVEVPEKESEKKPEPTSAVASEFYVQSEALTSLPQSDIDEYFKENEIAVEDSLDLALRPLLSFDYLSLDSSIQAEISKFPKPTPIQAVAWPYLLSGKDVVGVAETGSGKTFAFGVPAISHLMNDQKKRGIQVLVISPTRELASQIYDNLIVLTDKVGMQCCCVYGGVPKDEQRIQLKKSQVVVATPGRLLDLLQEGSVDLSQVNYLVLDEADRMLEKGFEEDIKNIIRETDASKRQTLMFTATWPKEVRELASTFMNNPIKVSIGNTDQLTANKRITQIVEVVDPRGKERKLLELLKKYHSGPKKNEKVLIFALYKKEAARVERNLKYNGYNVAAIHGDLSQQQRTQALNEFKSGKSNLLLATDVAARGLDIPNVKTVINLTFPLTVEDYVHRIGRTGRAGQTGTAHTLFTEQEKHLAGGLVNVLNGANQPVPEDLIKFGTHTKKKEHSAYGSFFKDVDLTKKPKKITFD

These are yes or no findings as the source states them, for the method shown. For some of these results: In cells and extracts the contact can be indirect. Some binding calls cover weakened binding; strength is not graded here. For some of these results: Tags and fused reporters may be left off the sequences shown.

Assay [1] deals with p33 replication protein, split-ubiquitin bait (cucumber necrosis virus (CNV)) (UniProt P15187). As to the kind of experiment: two-hybrid; membrane-based split-ubiquitin yeast two-hybrid (Dualmembrane kit3), strain NMY51; p33 as bait, helicases as prey; growth on Trp-/Leu-/His- plates, 10-fold serial dilutions.
Assay [2] concerns the target FLAG-tagged p33 replication protein (cucumber necrosis virus (CNV)) (UniProt P15187). As to the kind of experiment: co-IP; FLAG-p33 and FLAG-p92 affinity-purified on anti-FLAG M2 agarose from solubilised membrane fraction of yeast co-expressing the His6-helicase, with or without the TBSV repRNA; Western blot with anti-His antibody. In general terms: In western blotting, separated proteins are transferred to a membrane and probed.

In the case of “Dbp3p DEAD-box helicase, split-ubiquitin prey (from UniProt P20447 1-523)”, the binding entry in assay [1] is reported as “binds”.

B1: Fal1p DEAD-box helicase, split-ubiquitin prey (protein, UniProt Q12099 1-399)
chain: MSFDREEDQKLKFKTSKKLKVSSTFESMNLKDDLLRGIYSYGFEAPSSIQSRAITQIISGKDVIAQAQSGTGKTATFTIGLLQAIDLRKKDLQALILSPTRELASQIGQVVKNLGDYMNVNAFAITGGKTLKDDLKKMQKHGCQAVSGTPGRVLDMIKKQMLQTRNVQMLVLDEADELLSETLGFKQQIYDIFAKLPKNCQVVVVSATMNKDILEVTRKFMNDPVKILVKRDEISLEGIKQYVVNVDKEEWKFDTLCDIYDSLTITQCVIFCNTKKKVDWLSQRLIQSNFAVVSMHGDMKQEERDKVMNDFRTGHSRVLISTDVWARGIDVQQVSLVINYDLPEIIENYIHRIGRSGRFGRKGVAINFITKADLAKLREIEKFYSIKINPMPANFAELS
On to B1, for which the binding result in assay [1] is “binds”.

B2: His6-tagged AtRH5 DEAD-box helicase (expressed in yeast) (protein, UniProt Q9C551 1-537)
chain: MAGQKQELPVSGEPLAVESPMTNKKKKKSKKNKHTEENHEVEEVPQEVTNGVEEELSNKEKKKKRKREEKESEKNKKKDVPEKKLEAEDLGEGESEQQKVVVTGKGVEEAKYAALKTFAESNLPENVLDCCKTFEKPSPIQSHTWPFLLDGRDLIGIAKTGSGKTLAFGIPAIMHVLKKNKKIGGGSKKVNPTCLVLSPTRELAVQISDVLREAGEPCGLKSICVYGGSSKGPQISAIRSGVDIVIGTPGRLRDLIESNVLRLSDVSFVVLDEADRMLDMGFEEPVRFILSNTNKVRQMVMFSATWPLDVHKLAQEFMDPNPIKVIIGSVDLAANHDVMQIIEVLDERARDQRLIALLEKYHKSQKNRVLVFALYKVEAERLERFLQQRGWKAVSIHGNKAQSERTRSLSLFKEGSCPLLVATDVAARGLDIPDVEVVINYTFPLTTEDYVHRIGRTGRAGKKGVAHTFFTPLNKGLAGELVNVLREAGQVVPADLLKFGTHVKKKESKLYGAHFKEIAADAPKATKITFDNSDDED
On to B2, for which the binding entry in assay [2] is on record as “binds”.

B3: AtRH5, split-ubiquitin prey (protein, UniProt Q9C551 1-537)
chain: B2 chain
For the molecule B3, the binding entry in assay [1] is “binds”.
